{"source": "patent US12391686B2", "about": "“Compounds and uses thereof” (Foghorn Therapeutics Inc., priority 2019, dated 2025)", "key": {"[1]": {"molecular_target": "Nanoluciferase-BRD9 fusion protein (3×FLAG-NLuc-BRD9) in SYO-1 cells (Homo sapiens, UniProt Q9H8M2)", "assay": "SYO1 BRD9 NanoLuc Degradation Assay", "conditions": "read-out: SYO1 BRD9-NanoLuc degradation IC50; 6 hours; SYO-1 cells expressing 3×FLAG-NLuc-BRD9; top dose 1 μM; tested form: formic acid"}, "[2]": {"molecular_target": "BRD9 bromodomain (Flag-BRD9 P133-K239; Swiss Prot Q9H8M2) (Homo sapiens, UniProt Q9H8M2)", "assay": "BRD9 Bromodomain TR-FRET Competition Binding Assay", "conditions": "read-out: Bromodomain TR-FRET BRD9 IC50; competition with biotinylated BRD9 ligand; 90 minutes at room temperature; tested form: formic acid", "procedure": "Procedure: His-Flag-BRD9 (P133-K239; Swiss Prot Q9H8M2; SEQ ID NO:1 mgsshhhhhhenlyfq/gdykddddkgslevlfqg/[…] […]) was cloned, expressed, purified, and then treated with TEV protease. Cleaved His tag was removed by purification. The binding of a biotinylated small molecule ligand of BRD9 was assessed via the LANCE® TR-FRET platform (PerkinElmer), and the compounds were assayed for inhibitory activity against this interaction.\nResults: A mixture of biotinylated-ligand and SureLight™ Allophycocyanin-Streptavidin (APC-SA, PerkinElmer AD0201) in 50 mM HEPES (pH 7.4), 50 mM NaCl, 1 mM TCEP (pH 7), 0.01% (v/v) Tween-20, 0.01% (w/v) bovine serum albumin was added to a white 384-well PerkinElmer Proxiplate Plus plate. DMSO or 3-fold serially diluted compounds were then added to the Proxiplate followed by addition of Flag-BRD9. After a 10-minute incubation at room temperature, Eu-W1024 anti-FLAG (PerkinElmer, AD0273) was added. The final reaction mixture that contained 3.75 nM biotinylated ligand, 3 nM Flag-BRD9, 7.5 nM SureLight™ Allophycocyanin-Streptavidin, and 0.2 nM Eu-W1024 anti-FLAG was incubated at room temperature for 90 minutes.\nThe plates were then read on a PerkinElmer Envision plate reader to determine the ratio of emission at 665 nm over 615 nm. […]"}}, "note": "The structures given here were assigned with low confidence; some may be wrong."}
{"compound": "CNc1cc2c(=O)n(C)cc(-c3cc(OC)c(CN4CCC5(CC4)CN(C(=O)CCCCOc4ccc6c(c4)C(=O)N(C4CCC(=O)NC4=O)C6=O)CCO5)c(OC)c3)c2cn1", "note": "(centres unmarked)", "values": [{"measurement": "IC50", "setting": "[1]", "value": "< 10", "unit": "nM"}, {"measurement": "IC50", "setting": "[2]", "value": "< 10", "unit": "nM"}]}
